# PubChem BioAssay (Tox21)
# Amino acid sequences for entries named in this document (tags omitted).
# UniProt P14416, whole entry, looked up: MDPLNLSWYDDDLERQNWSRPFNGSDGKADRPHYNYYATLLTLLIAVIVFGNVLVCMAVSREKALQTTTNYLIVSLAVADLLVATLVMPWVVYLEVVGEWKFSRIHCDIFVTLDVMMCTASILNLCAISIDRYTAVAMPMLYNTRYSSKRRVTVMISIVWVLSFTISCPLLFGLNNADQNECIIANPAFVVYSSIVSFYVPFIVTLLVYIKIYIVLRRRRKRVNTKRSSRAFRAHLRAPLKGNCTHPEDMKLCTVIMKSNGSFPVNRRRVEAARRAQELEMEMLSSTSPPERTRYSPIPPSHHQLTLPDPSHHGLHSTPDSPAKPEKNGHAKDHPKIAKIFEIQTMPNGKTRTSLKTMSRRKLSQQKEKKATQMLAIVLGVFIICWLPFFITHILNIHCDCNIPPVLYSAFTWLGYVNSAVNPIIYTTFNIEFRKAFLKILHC
# Values joined by “and” are separate entries in the source; they are usually repeats but may differ in a detail not shown here. Equal values may be shown once. The inconclusive results got no clear call from the source; some entries with a clear call stand among them for comparison. For part of these data: Potencies of inconclusive entries are doubtful fits and often do not repeat. Active and inactive are the calls of the source. Unless noted, the call rests on the fitted dose curve.
# How the values were obtained:
# [1] = p53 small molecule agonists, cell-based qHTS assay: qHTS cell viability counter screen (AID 1963581); further: nearly all actives have a fitted effect of over 45% in size; further: potency means the concentration at half of the fitted maximal effect
# In short: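 Multiplexed with the reporter read, a CellTiter-Glo step (30 min, room temperature) gauges ATP-based viability of HCT-116 p53RE-bla cells after 16 h compound incubation at 37 C.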
# [2] = cAMP Responsive Elements (CRE) small molecule agonists, cell-based qHTS assay (AID 1963590); conditions: CRE-bla HEK293T, beta-lactamase FRET ratio, 3 h; activation: at 92.4 µM (top of the series) unless noted; further: potency means the concentration at half of the fitted maximal effect; on activation: on the % scale 0 is the no-effect control and ±100 the full control effect
# In short: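 Quantitative HTS for CRE agonists: HEK 293T CRE-bla cells, overnight plating, 3 h compound incubation at 37 C/5% CO2, then 2 h room-temperature LiveBLAzer B/G FRET substrate loading.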
# [3] = cAMP Responsive Elements (CRE) small molecule antagonists, cell-based qHTS assay (AID 1963591; active means well fitted inhibition curve with a large enough effect in the signal ratio in the repeat runs, not every such curve was filed as active; inconclusive means weak or mixed curves, or effect the other way; the % refers to the signal ratio; further: potency means the concentration at half of the fitted maximal effect; on activity change, negative = inhibition: on the % scale 0 is the no-effect control and ±100 the full control effect); conditions: CRE-bla HEK293T, beta-lactamase FRET ratio; activity change, negative = inhibition: at 92.4 µM (top of the series) unless noted
# In short: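 Fluorescence intensity from cleaved LiveBLAzer B/G substrate (2 h, room temperature) quantified CRE-bla activity in HEK 293T cells exposed 3 h to compound with 0.25 uM final NKH477.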
# [4] = biological target: Beta-2 adrenergic receptor (Homo sapiens) (UniProt P07550); test: Adrenergic beta2 receptor (ADRB2) small molecule agonists, cell-based qHTS assay (AID 1963593); conditions: CHO-ADRB2 cells, cAMP HTRF, 30 min; further: potency means the concentration at half of the fitted maximal effect;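 on activation: CHO cells stably overexpressing human ADRB2; on the % scale 0 is the no-effect control and ±100 the full control effect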
# In short: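 CHO cells stably over-expressing ADRB2 were plated overnight at 37C, then dosed with compounds plus a stimulation mix containing 100uM IBMX and 25uM Ro-20-1724 for 0.5hr at room temperature. cAMP was measured by HTRF competition, 1hr.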
# [5] = biological target: D(2) dopamine receptor (Homo sapiens) (UniProt P14416); test: Dopamine D2 receptor (DRD2) small molecule antagonists, cell-based qHTS assay (AID 1963595; active means well fitted inhibition curve with a large enough effect in the signal ratio in the repeat runs, with a control signal flat; inconclusive means weak or mixed curves, or effect the other way; the % refers to the signal ratio; further: on the % scale 0 is the no-effect control and ±100 the full control effect); conditions: HEK293-DRD2 cAMP HTRF antagonist mode; activity change, negative = inhibition: at 92.4 µM (top of the series) unless noted
# In short: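 HEK293 cells stably expressing DRD2, preincubated with 0.1 mM Ro20-1724 and compounds 10 min, were stimulated with 200 nM NKH477 plus 12 nM quinpirole for 30 min at room temperature; cAMP measured by HTRF (665/620 nm).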
# [6] = biological target: D(2) dopamine receptor (Homo sapiens) (UniProt P14416); test: Dopamine D2 receptor (DRD2) small molecule agonists, cell-based qHTS assay (AID 1963594); conditions: HEK293-DRD2 cAMP HTRF, agonist mode, 30 min; activation: at 92.4 µM (top of the series) unless noted; further: potency means the concentration at half of the fitted maximal effect; nearly all actives have a fitted effect of over 35% in size
# In short: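 cAMP accumulation in DRD2-HEK293 cells measured by HTRF after 1 h detection; compounds added 10 min before NKH477 (200nM […]) forskolin-analogue stimulation, 30 min at room temperature, with Ro20-1724 present at 0.1 mM final.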
# [7] = biological target: Beta-2 adrenergic receptor (Homo sapiens) (UniProt P07550); test: Adrenergic beta2 receptor (ADRB2) small molecule antagonists, cell-based qHTS assay (AID 1963592); conditions: CHO-ADRB2 cells, isoproterenol-stimulated cAMP HTRF ratio, 0.5 h; activity change, negative = inhibition: at 92.4 µM (top of the series) unless noted; further: on the % scale 0 is the no-effect control and ±100 the full control effect; nearly all actives have a fitted effect of over 50% in size
# In short: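 Assay format: CHO-ADRB2 cells, 18-20hr seeding at 37C/5% CO2, then compound plus 1nM isoproterenol agonist mix for 0.5hr RT. Homogeneous time-resolved fluorescence cAMP detection after 1hr, expressed as 665/615 nm ratio.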
# [8] = activation: at 92.4 µM (top of the series) unless noted
compound,measurement,setting,value
Cc1cc(C(C#N)c2ccc(Cl)cc2)c(Cl)cc1NC(=O)c1cc(I)cc(I)c1O (centres undefined),Potency,[1],active: 5610 nM
same,Potency,[2],"inconclusive: 26.6 µM [rising, partial curve]"
same,"activity change, negative = inhibition",[3],inconclusive: 7.26% [at 42.4 µM]
same,activation,[4]; [8],inconclusive: -57.3% [at 42.5 µM]
same,Potency,[5],inactive
O=CCCc1ccccc1,Potency,[1],"inconclusive: 289 nM [rising, partial curve, poor fit]"
same,Potency,[2],inactive
same,Potency,[3],inactive
same,activation,[4]; [8],inconclusive: -42.7%
CCOC(=O)c1ccc(C#Cc2ccc3c(c2)C(C)(C)CCS3)nc1,Potency,[1],inactive
same,Potency,[2],"inconclusive: 23.7 µM [fluorescent, partial curve, poor fit]"
same,"activity change, negative = inhibition",[3],inconclusive: 14.2% [at 42.4 µM]
same,Potency,[4]; [8],inactive
COc1cc(C)cc(O)c1,Potency,[1],inactive
same,Potency,[2],inactive
same,"activity change, negative = inhibition",[3],inconclusive: -9.71%
same,Potency,[4]; [8],inactive
c1ccc2[nH]cnc2c1,Potency,[1],"inconclusive: 10.2 µM [cytotoxic, single point] and inactive"
same,Potency,[2],inactive
same,Potency,[3],inactive
same,Potency,[4]; [8],"inconclusive: 13.7 µM [inhibitor, single point]"
Cc1cc(O)c(Cl)cc1C,Potency,[1],inactive
same,Potency,[2],inactive
same,activation,[4]; [8],inconclusive: 3.79%
CCCC(=O)O[C@]1(C(=O)CCl)[C@@H](C)C[C@H]2[C@@H]3CCC4=CC(=O)C=C[C@]4(C)[C@@]3(F)C(=O)C[C@@]21C,Potency,[1],"inconclusive: 56.1 nM [rising, partial curve]"
same,Potency,[2],"inconclusive: 29.8 µM [rising, partial curve]"
same,Potency,[3],"inconclusive: 26.6 µM [fluorescent, partial curve, poor fit]"
same,Potency,[6],"inconclusive: 0.119 µM [falling, partial curve, poor fit]"
COc1cc(OC)nc(NC(=O)NS(=O)(=O)Nc2ccccc2C(=O)N(C)C)n1,Potency,[1],inactive
same,activation,[2],inconclusive: 18.2%
same,"activity change, negative = inhibition",[7],inconclusive: -16.5%
same,activation,[4]; [8],inconclusive: 10.2%
CCC1=C(C)CN(C(=O)NCCc2ccc(S(=O)(=O)NC(=O)NC3CCC(C)CC3)cc2)C1=O (centres undefined),Potency,[1],inactive
same,Potency,[2],"inconclusive: 16.8 µM [rising, partial curve]"
same,"activity change, negative = inhibition",[3],inconclusive: 10.9% [at 42.4 µM]
same,Potency,[4]; [8],"inconclusive: 2.37 µM [inhibitor, full curve, poor fit]"
same,Potency,[5],inactive
OCCCc1ccccc1,Potency,[1],inactive
same,Potency,[3],"inconclusive: 68.6 µM [activator, single point]"
same,activation,[4]; [8],inconclusive: 6.72% [at 42.5 µM]
CCCCCCCCCCCBr,Potency,[1],"inconclusive: 507 nM [cytotoxic, single point]"
same,Potency,[3],inactive
same,Potency,[4]; [8],"inconclusive: 0.48 µM [inhibitor, full curve, poor fit]"
COC(=O)CC(C)=O,Potency,[1],inactive
same,"activity change, negative = inhibition",[3],inconclusive: -5.7%
same,activation,[4]; [8],inconclusive: 11.5%
COC(=O)NN,Potency,[1],inactive
same,"activity change, negative = inhibition",[3],inconclusive: 2.51%
same,Potency,[4]; [8],"inconclusive: 28 µM [activator, single point]"
NCC(=O)CCC(=O)O,Potency,[1],inactive
same,"activity change, negative = inhibition",[3],inconclusive: 1.35% [at 42.4 µM]
C[C@H](CCC(=O)NCC(=O)O)[C@H]1CC[C@H]2[C@@H]3[C@H](O)C[C@@H]4C[C@H](O)CC[C@]4(C)[C@H]3C[C@H](O)[C@]12C,Potency,[1],inactive
same,Potency,[3],inactive
same,activation,[4]; [8],inconclusive: -18.2%
CCOC(=O)c1ccc(OCCN2C[C@H](O)[C@@H](O)[C@H](O)[C@H]2CO)cc1,Potency,[1],inactive
same,Potency,[3],inactive
same,Potency,[4]; [8],inactive
CC(=O)OC[C@H]1O[C@@](COC(C)=O)(O[C@H]2O[C@H](COC(C)=O)[C@@H](OC(C)=O)[C@H](OC(C)=O)[C@H]2OC(C)=O)[C@@H](OC(C)=O)[C@@H]1OC(C)=O,Potency,[1],inactive
same,"activity change, negative = inhibition",[3],inconclusive: 10.4% [at 42.4 µM]
same,activation,[4]; [8],inconclusive: -4.58% [at 42.5 µM] and inconclusive: 40.4% [at 42.5 µM]
C[C@]12CCC(=O)C=C1CC[C@@H]1[C@@H]2[C@@H](O)C[C@@]2(C)[C@H]1CC[C@]2(O)C(=O)CO,Potency,[1],inactive
same,"activity change, negative = inhibition",[3],inconclusive: 4.06%
same,activation,[4]; at 42.5 µM (top of the series),inconclusive: -6.16%
same,activation,[4]; at 92.4 µM (top of the series),inconclusive: -8.75%

# Another view of part of the listing above:
compound	measurement	setting	value
c1ccc2[nH]cnc2c1	Potency	[3]	inactive
same	Potency	[4]; [8]	inconclusive: 13.7 µM [inhibitor, single point]
Cc1cc(O)c(Cl)cc1C	Potency	[1]	inactive
same	Potency	[2]	inactive
same	activation	[4]; [8]	inconclusive: 3.79%
CCCC(=O)O[C@]1(C(=O)CCl)[C@@H](C)C[C@H]2[C@@H]3CCC4=CC(=O)C=C[C@]4(C)[C@@]3(F)C(=O)C[C@@]21C	Potency	[1]	inconclusive: 56.1 nM [rising, partial curve]
same	Potency	[2]	inconclusive: 29.8 µM [rising, partial curve]
same	Potency	[3]	inconclusive: 26.6 µM [fluorescent, partial curve, poor fit]
same	Potency	[6]	inconclusive: 0.119 µM [falling, partial curve, poor fit]
COc1cc(OC)nc(NC(=O)NS(=O)(=O)Nc2ccccc2C(=O)N(C)C)n1	Potency	[1]	inactive
same	activation	[2]	inconclusive: 18.2%
same	activity change, negative = inhibition	[7]	inconclusive: -16.5%
same	activation	[4]; [8]	inconclusive: 10.2%
CCC1=C(C)CN(C(=O)NCCc2ccc(S(=O)(=O)NC(=O)NC3CCC(C)CC3)cc2)C1=O (centres undefined)	Potency	[1]	inactive
same	Potency	[2]	inconclusive: 16.8 µM [rising, partial curve]
same	activity change, negative = inhibition	[3]	inconclusive: 10.9% [at 42.4 µM]
same	Potency	[4]; [8]	inconclusive: 2.37 µM [inhibitor, full curve, poor fit]
same	Potency	[5]	inactive
OCCCc1ccccc1	Potency	[1]	inactive
